PubChem BioAssay AID1159578, Peter MacCallum Cancer Centre | 2015

- Purpose: 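Genome-wide hunt for genes controlling movement of lymphatic endothelial cells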 (primary screen)
- Cell system: human lymphatic endothelial cells
- Reagents: siRNA pool against human genes, 40 nM
- Time to read-out: 48 h after transfection
- Measured: 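High-content imaging of dye-stained cells in a scratch assay measures filled wound area and nuclei per well; duplicate means given as ratio to mock and robust z-score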
- Direction: migration robust z-score: higher = faster migration into the scratch; migration relative to mock: higher = more scratch area covered than mock; nuclei per well: higher = more cells in the well
- Call rule: 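Migration changed when robust z exceeds 2 or falls below -2 and mean nuclei number is at least 3300; otherwise not called changed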
- Calls: active = migration changed; inactive = no migration change, or too few cells
The whole screen tested about 18,000 reagents; shown is a part drawn at random. Of all reagents, about 1,030 (5.7%) are marked active. 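Inactive calls also include pools with fewer than 3300 nuclei, whose migration was not assessed.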 Raw values vary from plate to plate and are shown uncorrected. Reagent sequences are not shown.

gene knocked down	PubChem SID	migration robust z-score	migration class with cell-count check	migration relative to mock	nuclei per well, duplicate mean	outcome
POMT1 (GeneID 10585)	SID255355202	0.8	migration z between -2 and 2; enough cells	0.96	6209	inactive
GALNTL5 (GeneID 168391)	SID255363866	-0.72	migration z between -2 and 2; enough cells	0.66	5146	inactive
ZIC4 (GeneID 84107)	SID255361199	-1.67	migration z between -2 and 2; enough cells	0.45	6195	inactive
KCNA7 (GeneID 3743)	SID255350591	1.73	migration z between -2 and 2; enough cells	1.14	4636	inactive
PARM1 (GeneID 25849)	SID255356507	-0.16	migration z between -2 and 2; enough cells	0.84	5450	inactive
GREM2 (GeneID 64388)	SID255359910	0.03	migration z between -2 and 2; enough cells	0.89	4604	inactive
BTN2A3P (GeneID 54718)	SID255358135	-0.94	migration z between -2 and 2; enough cells	0.62	5838	inactive
BAHD1 (GeneID 22893)	SID255355851	0.54	migration z between -2 and 2; enough cells	0.91	4802	inactive
DSPP (GeneID 1834)	SID255349385	-0.87	migration z between -2 and 2; enough cells	0.66	3735	inactive
DIO2 (GeneID 1734)	SID255349305	-0.78	migration z between -2 and 2; enough cells	0.68	6604	inactive
PEG10 (GeneID 23089)	SID255355980	1.08	migration z between -2 and 2; enough cells	1.17	6357	inactive
ACVR2B (GeneID 93)	SID255348167	-0.26	migration z between -2 and 2; enough cells	0.76	4989	inactive
CBX8 (GeneID 57332)	SID255359357	-1.79	migration z between -2 and 2; enough cells	0.46	3682	inactive
SLC9A9 (GeneID 285195)	SID255364830	0.42	migration z between -2 and 2; enough cells	0.88	6622	inactive
NPDC1 (GeneID 56654)	SID255359103	-1.2	migration z between -2 and 2; enough cells	0.57	5002	inactive
VWA5A (GeneID 4013)	SID255350783	0.08	migration z between -2 and 2; enough cells	0.91	4867	inactive
FABP6 (GeneID 2172)	SID255349613	-0.46	migration z between -2 and 2; enough cells	0.72	5426	inactive
ANKRD35 (GeneID 148741)	SID255363391	-0.01	migration z between -2 and 2; enough cells	0.88	7352	inactive
VGF (GeneID 7425)	SID255353105	-0.05	migration z between -2 and 2; enough cells	0.8	5121	inactive
NUS1 (GeneID 116150)	SID255362352	-0.76	migration z between -2 and 2; enough cells	0.69	6904	inactive
PAX3 (GeneID 5077)	SID255351422	-0.6	migration z between -2 and 2; enough cells	0.69	6526	inactive
WFDC10B (GeneID 280664)	SID255364617	1.33	migration z between -2 and 2; enough cells	1.23	5832	inactive
PIK3R6 (GeneID 146850)	SID255363302	1.31	migration z between -2 and 2; enough cells	1.23	5876	inactive
ABCA2 (GeneID 20)	SID255348120	-3.12	migration z below -2; enough cells	0.2	4668	active
HTATSF1 (GeneID 27336)	SID255357038	-0.68	migration z between -2 and 2; enough cells	0.68	5774	inactive
BAIAP3 (GeneID 8938)	SID255353933	-0.9	migration z between -2 and 2; enough cells	0.66	5624	inactive
OR2AE1 (GeneID 81392)	SID255360864	-0.98	migration z between -2 and 2; enough cells	0.63	5368	inactive
TOM1L2 (GeneID 146691)	SID255363289	0.95	migration z between -2 and 2; enough cells	1.13	7004	inactive
GPR180 (GeneID 160897)	SID255363715	-0.78	migration z between -2 and 2; enough cells	0.68	6090	inactive
SUCLA2 (GeneID 8803)	SID255353825	0.94	migration z between -2 and 2; enough cells	0.98	5948	inactive
CLCC1 (GeneID 23155)	SID255356028	0.18	migration z between -2 and 2; enough cells	0.84	5194	inactive
MCMDC2 (GeneID 157777)	SID255363637	0.1	migration z between -2 and 2; enough cells	0.92	6190	inactive
S100G (GeneID 795)	SID255348665	2.46	migration z above 2; enough cells	1.52	6211	active
WDR4 (GeneID 10785)	SID255355351	0.16	migration z between -2 and 2; enough cells	0.92	5880	inactive
IFT20 (GeneID 90410)	SID255361822	-0.76	migration z between -2 and 2; enough cells	0.69	6834	inactive
PKD2L2 (GeneID 27039)	SID255356890	0.23	migration z between -2 and 2; enough cells	0.85	4522	inactive
DGKE (GeneID 8526)	SID255353618	-2.34	migration z below -2; enough cells	0.36	4382	active
LINC02903 (GeneID 154907)	SID255363604	1.09	migration z between -2 and 2; enough cells	1.17	6293	inactive
VPS33B (GeneID 26276)	SID255356754	-1.08	migration z between -2 and 2; enough cells	0.6	5179	inactive
OR4C6 (GeneID 219432)	SID255364164	0.01	migration z between -2 and 2; enough cells	0.89	4285	inactive
STXBP3 (GeneID 6814)	SID255352690	1.45	migration z between -2 and 2; enough cells	1.26	5426	inactive
ASB17 (GeneID 127247)	SID255362745	1.04	migration z between -2 and 2; enough cells	1.01	5484	inactive
COQ9 (GeneID 57017)	SID255359231	1.11	migration z between -2 and 2; enough cells	1.17	5527	inactive
C10orf88 (GeneID 80007)	SID255360621	-0.74	migration z between -2 and 2; enough cells	0.7	6204	inactive
SOX12 (GeneID 6666)	SID255352580	0.03	migration z between -2 and 2; enough cells	0.9	5788	inactive
DAPK1 (GeneID 1612)	SID255349238	-0.8	migration z between -2 and 2; enough cells	0.65	4466	inactive
NDUFB10 (GeneID 4716)	SID255351178	1.25	migration z between -2 and 2; enough cells	1.04	7350	inactive
ARPP19 (GeneID 10776)	SID255355344	0.02	migration z between -2 and 2; enough cells	0.81	5472	inactive
CNDP2 (GeneID 55748)	SID255358827	-0.18	migration z between -2 and 2; enough cells	0.77	4706	inactive
CNTROB (GeneID 116840)	SID255362391	-0.19	migration z between -2 and 2; enough cells	0.84	4152	inactive
STK3 (GeneID 6788)	SID255352676	-0.13	migration z between -2 and 2; enough cells	0.78	6630	inactive
ME3 (GeneID 10873)	SID255355405	-0.29	migration z between -2 and 2; enough cells	0.75	5278	inactive
LRRC8D (GeneID 55144)	SID255358444	-1.3	migration z between -2 and 2; enough cells	0.54	5717	inactive
PADI1 (GeneID 29943)	SID255357232	-0.13	migration z between -2 and 2; enough cells	0.78	6300	inactive
FLI1 (GeneID 2313)	SID255349716	-0.13	migration z between -2 and 2; enough cells	0.78	4737	inactive
CEACAM4 (GeneID 1089)	SID255348889	-0.72	migration z between -2 and 2; enough cells	0.7	5088	inactive
LMX1B (GeneID 4010)	SID255350781	-1.19	migration z between -2 and 2; enough cells	0.57	4804	inactive

Part of the list above, reformatted.
| gene knocked down | PubChem SID | migration robust z-score | migration class with cell-count check | migration relative to mock | nuclei per well, duplicate mean | outcome |
| --- | --- | --- | --- | --- | --- | --- |
| POMT1 (GeneID 10585) | SID255355202 | 0.8 | migration z between -2 and 2; enough cells | 0.96 | 6209 | inactive |
| GALNTL5 (GeneID 168391) | SID255363866 | -0.72 | migration z between -2 and 2; enough cells | 0.66 | 5146 | inactive |
| ZIC4 (GeneID 84107) | SID255361199 | -1.67 | migration z between -2 and 2; enough cells | 0.45 | 6195 | inactive |
| KCNA7 (GeneID 3743) | SID255350591 | 1.73 | migration z between -2 and 2; enough cells | 1.14 | 4636 | inactive |
| PARM1 (GeneID 25849) | SID255356507 | -0.16 | migration z between -2 and 2; enough cells | 0.84 | 5450 | inactive |
| GREM2 (GeneID 64388) | SID255359910 | 0.03 | migration z between -2 and 2; enough cells | 0.89 | 4604 | inactive |
| BTN2A3P (GeneID 54718) | SID255358135 | -0.94 | migration z between -2 and 2; enough cells | 0.62 | 5838 | inactive |
| BAHD1 (GeneID 22893) | SID255355851 | 0.54 | migration z between -2 and 2; enough cells | 0.91 | 4802 | inactive |
| DSPP (GeneID 1834) | SID255349385 | -0.87 | migration z between -2 and 2; enough cells | 0.66 | 3735 | inactive |
